Test results taken from patent US7312229B2, “21-Heterocyclic-4-azasteroid derivatives as androgen receptor modulators” (Merck & Co., Inc., priority 2003, dated 2007).
Some entries share one result that the patent states for a list of compounds.

Sequences of proteins named here, by UniProt entry; tags and fusion partners are left off. A change or cut given only in a name is not applied to a line headed by its entry.
UniProt P10275: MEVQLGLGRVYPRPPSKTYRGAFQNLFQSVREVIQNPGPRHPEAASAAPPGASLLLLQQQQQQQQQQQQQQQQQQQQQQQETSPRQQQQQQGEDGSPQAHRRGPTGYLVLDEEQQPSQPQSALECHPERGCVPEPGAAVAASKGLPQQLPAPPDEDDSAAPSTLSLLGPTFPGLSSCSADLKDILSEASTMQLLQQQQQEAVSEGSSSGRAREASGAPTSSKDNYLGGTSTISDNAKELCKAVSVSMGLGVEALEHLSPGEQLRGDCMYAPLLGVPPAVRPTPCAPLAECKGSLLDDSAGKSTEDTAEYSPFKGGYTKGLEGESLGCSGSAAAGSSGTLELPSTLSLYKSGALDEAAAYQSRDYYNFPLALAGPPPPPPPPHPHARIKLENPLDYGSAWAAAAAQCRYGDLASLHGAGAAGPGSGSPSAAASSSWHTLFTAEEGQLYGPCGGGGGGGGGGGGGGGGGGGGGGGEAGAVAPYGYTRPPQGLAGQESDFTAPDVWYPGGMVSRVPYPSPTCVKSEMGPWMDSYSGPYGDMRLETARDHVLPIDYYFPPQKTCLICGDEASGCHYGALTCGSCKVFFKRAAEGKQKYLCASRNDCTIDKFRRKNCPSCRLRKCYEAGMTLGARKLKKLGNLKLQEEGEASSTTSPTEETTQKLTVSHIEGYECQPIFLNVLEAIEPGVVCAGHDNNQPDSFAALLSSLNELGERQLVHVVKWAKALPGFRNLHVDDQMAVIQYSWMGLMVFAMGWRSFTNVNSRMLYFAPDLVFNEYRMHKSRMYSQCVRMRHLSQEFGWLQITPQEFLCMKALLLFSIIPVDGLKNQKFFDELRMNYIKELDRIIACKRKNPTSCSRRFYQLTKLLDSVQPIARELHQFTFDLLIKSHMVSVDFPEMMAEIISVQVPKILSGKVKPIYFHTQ

Target: endogenously expressed AR (MDA-MB-453 cell lysate) (Homo sapiens, UniProt P10275)
Assay: Hydroxylapatite-based radioligand displacement assay of compound affinity for endogenously expressed AR
Assay type: binding
Settings: displacement of 3H-R1881 (0.5 nM), R1881 as reference

Row | SMILES | IC50 [µM]
1 | CN1C(=O)C=C[C@]2(C)C3CC[C@]4(C)[C@@H](C(F)c5nc6ccncc6[nH]5)CC[C@H]4C3CC[C@@H]12 (stereo partly drawn) [Example 35, 20-Fluoro-20-(1H-imidazo[4,5-b]pyridin-3-yl)-4-methyl-4-aza-5α-androst-1-en-3-one] | ≤ 1
2 | CN1C(=O)CC[C@]2(C)C3CC[C@]4(C)[C@@H](Cc5nc6ccc(F)cc6[nH]5)CC[C@H]4C3CC[C@@H]12 (stereo partly drawn) [Example 36, 17β-[(5-fluoro-1H-benzimidazol-2-yl)methyl]-4-methyl-4-aza-5α-androstan-3-one] | ≤ 1
